Reference: patent publication US10017459B2, “β-substituted β-amino acids and analogs as chemotherapeutic agents and uses thereof” (Quadriga Biosciences, Inc., priority 2015, dated 2018)
Some of these results come from one statement about several compounds together.

The chains behind the UniProt entries cited, without tags or fusion partners. Where a name states a change or a piece, a line headed by the entry shows the natural chain unless it says otherwise.
UniProt Q01650: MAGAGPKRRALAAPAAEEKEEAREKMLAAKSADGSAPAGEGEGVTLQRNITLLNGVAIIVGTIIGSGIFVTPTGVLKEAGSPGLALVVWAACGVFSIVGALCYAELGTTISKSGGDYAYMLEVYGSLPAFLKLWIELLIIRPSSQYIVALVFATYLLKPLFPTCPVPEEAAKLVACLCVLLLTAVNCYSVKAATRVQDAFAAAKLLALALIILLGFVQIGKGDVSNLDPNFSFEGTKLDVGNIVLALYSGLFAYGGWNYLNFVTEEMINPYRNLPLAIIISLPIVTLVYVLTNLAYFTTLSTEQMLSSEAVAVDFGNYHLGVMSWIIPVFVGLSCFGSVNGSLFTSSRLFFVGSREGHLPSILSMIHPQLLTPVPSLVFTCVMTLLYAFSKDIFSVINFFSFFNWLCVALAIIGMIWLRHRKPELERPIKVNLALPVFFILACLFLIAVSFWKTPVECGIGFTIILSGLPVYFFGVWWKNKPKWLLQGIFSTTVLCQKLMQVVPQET

Target: T1, hLAT1 (Homo sapiens, UniProt Q01650)
T1 construct: expressed in transfected cells; host or cells: LLCPK cells, tetracycline/doxycycline-inducible, boosted with sodium butyrate
Experiment: LAT1 uptake inhibition assay, radiolabeled competition uptake with [3H]-Gabapentin
Format: cell-based
Conditions: 1 mM test compound, 15 min, LAT1-expressing LLCPK cells; 100% in the absence of any compound

`N[C@@H](Cc1ccccc1)C(=O)O` [phenylalanine, reference compound] was tested. Which “specific uptake of radiolabeled gabapentin (percent of specific GP uptake)” value did it give?
Its value is “less than 10%”.
